These are yes or no findings as the source states them, for the method shown. In cells and extracts the contact can be indirect.

The chains behind the UniProt entries cited, without tags or fusion partners. Residues count along the entry.
UniProt Q8Y9T5, residues 37-205: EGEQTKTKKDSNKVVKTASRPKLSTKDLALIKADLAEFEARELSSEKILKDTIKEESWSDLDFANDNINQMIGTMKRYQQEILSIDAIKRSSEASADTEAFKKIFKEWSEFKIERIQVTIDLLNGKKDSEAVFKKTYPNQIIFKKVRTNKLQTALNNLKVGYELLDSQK
UniProt P52756: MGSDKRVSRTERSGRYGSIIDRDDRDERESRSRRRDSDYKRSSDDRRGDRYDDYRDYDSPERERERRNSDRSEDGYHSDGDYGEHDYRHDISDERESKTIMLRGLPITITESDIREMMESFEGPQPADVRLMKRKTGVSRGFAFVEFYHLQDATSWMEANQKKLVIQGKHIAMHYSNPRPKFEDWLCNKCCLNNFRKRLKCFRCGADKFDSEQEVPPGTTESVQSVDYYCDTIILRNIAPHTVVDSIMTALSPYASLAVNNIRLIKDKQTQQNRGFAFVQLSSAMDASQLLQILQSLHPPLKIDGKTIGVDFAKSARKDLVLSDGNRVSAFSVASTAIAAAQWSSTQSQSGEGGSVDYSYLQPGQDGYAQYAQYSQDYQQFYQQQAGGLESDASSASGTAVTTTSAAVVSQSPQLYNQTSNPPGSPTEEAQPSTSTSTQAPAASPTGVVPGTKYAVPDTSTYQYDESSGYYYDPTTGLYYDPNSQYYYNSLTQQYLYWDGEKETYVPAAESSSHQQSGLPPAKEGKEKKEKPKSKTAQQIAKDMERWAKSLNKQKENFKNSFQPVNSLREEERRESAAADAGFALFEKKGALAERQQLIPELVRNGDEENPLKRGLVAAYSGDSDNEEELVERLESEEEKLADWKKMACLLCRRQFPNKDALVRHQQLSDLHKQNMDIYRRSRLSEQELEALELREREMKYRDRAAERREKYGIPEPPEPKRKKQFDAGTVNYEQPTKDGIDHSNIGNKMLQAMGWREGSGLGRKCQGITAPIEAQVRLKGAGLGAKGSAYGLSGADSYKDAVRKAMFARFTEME

This experiment concerns the target GST-LntA (L. monocytogenes) (UniProt Q8Y9T5). Kind of experiment: pull-down; GST fusion proteins on magnetic glutathione beads incubated overnight at 4 °C with nuclear extracts of HEK293-FT cells transfected with RBM5-Myc; washes in 20 mM Tris pH 7.65, 150 mM NaCl, 0.5% IGEPAL; only the target purified.

Regarding RBM5-Myc (from UniProt P52756 1-815), the binding entry is reported as “no binding”.
